Experimental data reported in publication PMC9695642, “Conservation of Importin α Function in Apicomplexans: Ivermectin and GW5074 Target Plasmodium falciparum Importin α and Inhibit Parasite Growth in Culture” (International Journal of Molecular Sciences, 2022).
No constants are given. Whether binding was seen depends on the method and setting. Some results given as binding are weak or reduced against the parent protein; the word gives no strength. Tags and fused reporters may be left off the sequences shown.

Biological target: T1, His-tagged Plasmodium falciparum importin α (Plasmodium falciparum) (UniProt Q8IAW0)
T1 sequence: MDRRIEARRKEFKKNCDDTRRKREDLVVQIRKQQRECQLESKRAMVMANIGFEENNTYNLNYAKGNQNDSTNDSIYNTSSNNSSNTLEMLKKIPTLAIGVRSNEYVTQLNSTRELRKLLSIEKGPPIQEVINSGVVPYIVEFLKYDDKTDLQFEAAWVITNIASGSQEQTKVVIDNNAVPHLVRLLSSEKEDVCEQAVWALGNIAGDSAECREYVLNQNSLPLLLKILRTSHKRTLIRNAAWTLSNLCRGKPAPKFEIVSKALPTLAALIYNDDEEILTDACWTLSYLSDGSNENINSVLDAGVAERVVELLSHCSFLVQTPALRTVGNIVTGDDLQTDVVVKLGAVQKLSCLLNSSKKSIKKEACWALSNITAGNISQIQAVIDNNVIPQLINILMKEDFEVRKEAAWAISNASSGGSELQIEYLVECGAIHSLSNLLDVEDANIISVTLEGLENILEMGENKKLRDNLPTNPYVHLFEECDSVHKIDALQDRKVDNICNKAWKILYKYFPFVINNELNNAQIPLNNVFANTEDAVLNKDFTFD
Test: AlphaScreen or HTRF; IMPβ (30 nM) and IMPαs (30 nM) with increasing concentrations of ivermectin or GW5074 (inhibition by small molecules); both purified

Question: Which binding does the source give for “biotinylated GST-MmIMPβ1 (Mus musculus importin β1) (from UniProt P70168 1-876)” here?
Answer: binds
